# Screening data, single-dose tests

By UniProt entry, the sequences of proteins in these tests, tags left out. Residues count along the entry.
UniProt P9WPC5, whole entry: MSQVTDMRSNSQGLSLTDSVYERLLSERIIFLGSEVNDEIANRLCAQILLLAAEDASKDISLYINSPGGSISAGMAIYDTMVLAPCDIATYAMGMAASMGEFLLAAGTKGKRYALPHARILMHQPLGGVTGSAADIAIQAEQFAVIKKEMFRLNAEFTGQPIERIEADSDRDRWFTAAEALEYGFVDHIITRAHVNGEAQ
UniProt P9WPC3, whole entry partner: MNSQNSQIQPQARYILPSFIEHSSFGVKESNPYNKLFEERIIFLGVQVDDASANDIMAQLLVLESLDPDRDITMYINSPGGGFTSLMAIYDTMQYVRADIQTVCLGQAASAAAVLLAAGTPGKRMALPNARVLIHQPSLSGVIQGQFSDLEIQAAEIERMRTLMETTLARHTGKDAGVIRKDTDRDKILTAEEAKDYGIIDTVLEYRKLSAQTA
UniProt Q4DA54, 1-478: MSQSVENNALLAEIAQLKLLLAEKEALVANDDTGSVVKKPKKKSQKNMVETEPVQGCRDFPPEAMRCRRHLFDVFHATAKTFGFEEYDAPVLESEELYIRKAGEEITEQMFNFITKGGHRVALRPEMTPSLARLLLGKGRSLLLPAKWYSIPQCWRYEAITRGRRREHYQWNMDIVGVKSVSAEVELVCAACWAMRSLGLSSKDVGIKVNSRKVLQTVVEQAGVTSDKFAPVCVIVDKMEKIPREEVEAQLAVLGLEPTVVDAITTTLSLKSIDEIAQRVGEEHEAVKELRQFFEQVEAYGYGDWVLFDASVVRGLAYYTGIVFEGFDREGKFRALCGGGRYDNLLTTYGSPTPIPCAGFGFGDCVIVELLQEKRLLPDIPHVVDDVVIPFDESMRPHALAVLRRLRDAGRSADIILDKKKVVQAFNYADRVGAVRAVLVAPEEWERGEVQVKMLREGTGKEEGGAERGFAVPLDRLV
UniProt P9WNZ1, whole entry: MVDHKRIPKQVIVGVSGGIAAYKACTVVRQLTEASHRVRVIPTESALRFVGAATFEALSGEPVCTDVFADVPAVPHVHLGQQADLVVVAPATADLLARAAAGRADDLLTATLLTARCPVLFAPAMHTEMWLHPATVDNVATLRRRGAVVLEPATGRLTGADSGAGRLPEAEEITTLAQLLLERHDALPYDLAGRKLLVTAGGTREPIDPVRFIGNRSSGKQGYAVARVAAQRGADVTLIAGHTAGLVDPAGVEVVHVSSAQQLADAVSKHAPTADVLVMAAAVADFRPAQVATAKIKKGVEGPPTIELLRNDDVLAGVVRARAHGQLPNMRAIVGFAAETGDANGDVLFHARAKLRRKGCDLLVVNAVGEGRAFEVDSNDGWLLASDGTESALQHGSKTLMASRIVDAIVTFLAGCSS

From ChEMBL document CHEMBL3988442, “University of Dundee, Small-Polar-MMV Screening Library” (2021).

ClpP1P2: 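ClpP1P2, Mycobacterium tuberculosis (UniProt P9WPC5 and UniProt P9WPC3). Protease assay of ClpP1P2, read by the AMC dye that it sets free. Compounds at 50 µM. Higher reads as stronger inhibition, judged from the few compounds that gave an IC50. Most other retested compounds had strongly negative values. Size under these conditions: about 69,000 compounds, about 10 of them at 50% or above in at least one test.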
Toxoplasma: 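Assay of Toxoplasma gondii numbers, read through their beta-galactosidase reporter with a colour substrate. Compounds at 10 µM. The record gives no direction; the compounds picked for IC50 retests had high values, so higher reads as fewer parasites. Size under these conditions: about 67,000 compounds, about 260 of them at 50% or above in at least one test.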
Leishmania in macrophages: 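Cell assay of Leishmania donovani living inside macrophages; the read-out is not stated. Tested at 30 µM. Direction is inferred from retests: higher values go with stronger inhibition. Of about 69,000 compounds tested this way, about 1,000 (1.5%) reached 50% or more in at least one test.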
TcHisRS: 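Enzyme assay of histidyl-tRNA synthetase; the read-out is not stated. Target: Histidine-tRNA ligase, Trypanosoma cruzi CL Brener (UniProt Q4DA54). Tested at 30 µM. The record gives no direction; compounds that gave an IC50 in retests scored well above the rest, so higher reads as stronger inhibition. Of about 69,000 compounds tested this way, about 31 (0.045%) reached 50% or more in at least one test.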
CoaBC: 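Coenzyme A biosynthesis protein CoaBC, Mycobacterium tuberculosis (UniProt P9WNZ1). Enzyme assay of CoaBC with a phosphate dye (Biomol Green) read at 650 nm. Tested at 30 µM. Higher reads as stronger inhibition, judged from the few compounds that gave an IC50. Most strong results did not repeat in a second test. Of about 67,000 compounds tested this way, about 40 (0.06%) reached 50% or more in at least one test.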

Values are the deposited “Percent Effect”, in %.
The record does not define 0% and 100%; most values in the screen are far below 50% and negative numbers occur (in some assays of this library far below -100).
The compounds are a random part of those screened.

{"smiles": "CC(NC(=O)Nc1cnn(CC(N)=O)c1)c1ccc(Cl)s1", "stereo": "configuration not stated", "ClpP1P2": -1.155, "Toxoplasma": -0.4142, "Leishmania in macrophages": -5.634, "TcHisRS": 1.63, "CoaBC": -0.4132}
{"smiles": "CCS(=O)(=O)CC(=O)Nc1cc(-c2cccc(F)c2F)n[nH]1", "ClpP1P2": -7.793, "Toxoplasma": 2.813, "Leishmania in macrophages": 14.23, "TcHisRS": 4.04, "CoaBC": 5.051}
{"smiles": "CNC(=O)N1CC[C@@H]2CN(Cc3cccc(OC)c3)S(=O)(=O)[C@@H]2CC1", "ClpP1P2": -7.369, "TcHisRS": 8.466, "CoaBC": 1.235}
{"smiles": "Cc1cccnc1CC(C)N(C)Cc1cccs1", "stereo": "configuration not stated", "ClpP1P2": 1.603, "Toxoplasma": 0.1873, "Leishmania in macrophages": 7.259, "TcHisRS": 4.813, "CoaBC": 2.174}
{"smiles": "CCC(C)(NC(=O)CCN1CCOC1=O)C(=O)OC", "stereo": "configuration not stated", "ClpP1P2": -3.315, "Toxoplasma": -3.816, "Leishmania in macrophages": 18.06, "TcHisRS": 8.861, "CoaBC": 0.2404}
{"smiles": "CCN(CC)C(=O)CCNC(=O)c1ccccc1N1CCOCC1", "ClpP1P2": -8.114, "Toxoplasma": 11.34, "Leishmania in macrophages": -16.53, "TcHisRS": 2.041, "CoaBC": -0.6061}
{"smiles": "COc1cc(C(F)(F)F)sc1C(=O)O", "ClpP1P2": -4.205, "Toxoplasma": -7.017, "Leishmania in macrophages": -6.944, "TcHisRS": 5.941, "CoaBC": 2.67}
{"smiles": "CC(C)(C(=O)NCC1CC1)c1ccccc1F", "ClpP1P2": -2.476, "Toxoplasma": -6.862, "Leishmania in macrophages": -12.81, "TcHisRS": 9.756, "CoaBC": 1.266}
{"smiles": "CN(C)C(=O)CN1CCC(c2cncc(-c3cccc(Cl)c3)n2)CC1", "ClpP1P2": -18.16, "Toxoplasma": 2.893, "Leishmania in macrophages": 10.11, "TcHisRS": 5.243, "CoaBC": 2.107}
{"smiles": "Cc1noc(C)c1CN1CCC2(CC1)CCN(C(=O)c1cscn1)C2", "ClpP1P2": 4.052, "TcHisRS": 2.151, "CoaBC": 7.4}
{"smiles": "O=C(O)C(F)(F)F.[H][C@@]12CN(C)CCO[C@]1([H])CN(C(=O)COc1cccc(Cl)c1)C2", "Toxoplasma": -2.643, "Leishmania in macrophages": 14.45}
{"smiles": "Cn1nccc1CCNC(=O)[C@H]1CNC[C@H](C(=O)N2CCCC2)C1", "ClpP1P2": -8.233, "Toxoplasma": -4, "Leishmania in macrophages": 8.481, "TcHisRS": 6.03, "CoaBC": 7.593}
{"smiles": "Cc1cccc(CN2CCC3(CC2)CN(c2cnn(C)c2)C(=O)CO3)n1.O=C(O)C(F)(F)F", "Toxoplasma": 5.849, "Leishmania in macrophages": -16.83}
{"smiles": "CC(O)CNC(=O)NCc1cccnc1OC1CCCC1", "stereo": "configuration not stated", "ClpP1P2": 1.222, "Toxoplasma": -1.891, "Leishmania in macrophages": 16.57, "TcHisRS": -6.415, "CoaBC": 1.956}
{"smiles": "COc1ccc(-n2nnnc2C2(NCc3ccco3)CCCCC2)cc1", "ClpP1P2": -23.17, "Toxoplasma": -17.09, "Leishmania in macrophages": -17.59, "TcHisRS": 5.941, "CoaBC": 4.126}
{"smiles": "Cc1ccc(C2CCCN(C(=O)c3cnn(C)c3)C2)nc1", "stereo": "configuration not stated", "ClpP1P2": 17.75, "Toxoplasma": 2.262, "Leishmania in macrophages": -15.16, "TcHisRS": 7.447, "CoaBC": -1.225}
{"smiles": "CCOc1cc(CNc2nnn(C)n2)ccc1OCc1ccc(Cl)cc1", "ClpP1P2": -9.396, "Toxoplasma": -8.164, "Leishmania in macrophages": 13.75, "TcHisRS": -8, "CoaBC": -2.24}

The first 2 entries again:

{"smiles": "CC(NC(=O)Nc1cnn(CC(N)=O)c1)c1ccc(Cl)s1", "stereo": "configuration not stated", "ClpP1P2": -1.155, "Toxoplasma": -0.4142, "Leishmania in macrophages": -5.634, "TcHisRS": 1.63, "CoaBC": -0.4132}
{"smiles": "CCS(=O)(=O)CC(=O)Nc1cc(-c2cccc(F)c2F)n[nH]1", "ClpP1P2": -7.793, "Toxoplasma": 2.813, "Leishmania in macrophages": 14.23, "TcHisRS": 4.04, "CoaBC": 5.051}